# Assay results from PubChem BioAssay AID651647 (Sanford-Burnham Center for Chemical Genomics, 2012).
# This is one part of the list. Some of these compounds have results that are not shown, active ones among them.
# Assay: blockers of MT1-MMP proenzyme processing, primary screen, HT1080 RFP-PRO-GFP cells, GFP/RFP fluorescence (AID 651647)
# Conditions: GFP/RFP ratio fluorescence, overnight, RFP expression control read, at 20 µM
# In short: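 Assay system: HT1080 RFP-PRO-GFP cells. Benchmarks: DMSO vehicle wells and RFP-L50D-GFP reporter cell wells. Times: overnight cell settling, then overnight compound exposure, 37 °C, 5% CO2. Compound: 20 µM single dose, 1% DMSO. Read-out basis: GFP/RFP fluorescence ratio.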
row,Compound,RFP signal change [%]
1,COc1ccc(C(=O)NCC2(N(C)C)CCCCC2)cc1,1.12
2,CCN1CCCC(OC(=O)C2(O)c3ccccc3C=Cc3ccccc32)C1 (stereo unspecified),-0.349
3,Cc1cc(C(=O)NCC2(N3CCCCC3)CCCCC2)ccc1[N+](=O)[O-],1.09
4,O=C(NCC1(N2CCCCC2)CCCCC1)c1cccc(Br)c1,-0.637
5,C=CCN1CCN(CCOC(=O)C(O)(c2ccccc2)c2ccccc2)CC1,6.23
6,O=C(NCC1(N2CCCCC2)CCCCC1)c1cc(F)c(F)cc1Cl,2.86
7,Cc1ccccc1C(=O)NCC1(N2CCCCC2)CCCCC1,-0.253
8,CN(C)c1ccc(C(=O)NCC2(N(C)C)CCCCC2)cc1,1.59
9,CN(C)C1CCCC1OC(=O)C(O)(c1ccccc1)c1ccccc1 (stereo unspecified),1.06
10,Cc1ccc(C(=O)NCC2(N3CCCCC3)CCCCC2)cc1,5.07
11,CCN(CC)CC(C)C(C)OC(=O)C(O)(c1ccccc1)c1ccccc1 (stereo unspecified),-0.0943
12,COc1cc(SC)ccc1C(=O)NCC1(N(C)C)CCCCC1,-0.0126
13,CC(C)N1C(=O)CC2(CCN(CCOC(=O)C(O)(c3ccccc3)c3ccccc3)CC2)C1=O,0.705
14,CN1[C@@H]2CC[C@H]1CC(OC(=O)C(O)(c1ccccc1)c1ccccc1)C2 (stereo partly specified),-6.86
15,O=C(NCC1(N2CCCCC2)CCCCC1)c1cc([N+](=O)[O-])ccc1Cl,-1.63
16,CC(C)Oc1ccc(C(=O)NCC2(N(C)C)CCCCC2)cc1,-3.07
17,O=C(OCCN1CCCC1)C(O)(c1ccccc1)c1ccccc1,0.362
18,CN(C)c1cccc(C(=O)NCC2(N(C)C)CCCCC2)c1,8.48
19,C=C(C)C#CC(O)(C(=O)OC1CCN(C)CC1)c1ccccc1 (stereo unspecified),4.78
20,COc1ccc(Br)c(C(=O)NCC2(N3CCCCC3)CCCCC2)c1,1.09
21,O=C(OC1CN2CCC1CC2)C(CO)(c1ccccc1)c1ccccc1 (stereo unspecified),-11.3
22,O=C(NCC1(N2CCCCC2)CCCCC1)c1cccc(Cl)c1,3.56
23,COc1cccc(C(=O)NCC2(N3CCCCC3)CCCCC2)c1,1.82
24,COc1ccc(Cl)cc1C(=O)NCC1(N(C)C)CCCCC1,-2.03
25,COc1cc(C(=O)NCC2(N(C)C)CCCCC2)c([N+](=O)[O-])cc1OC,3.54
26,CN(C)C1(CNC(=O)c2ccc(Br)cc2)CCCCC1,3.45
